According to patent publication US11382935B2, “Composition for improving cognitive ability and preventing or treating dementia and attention deficit hyperactivity disorder, comprising Galla rhois extract and fraxin as active ingredients” (priority 2018, dated 2022):
Some results were stated once for a whole list of compounds, not compound by compound. At least one compound was matched to its structure with a doubt left.

Tested on: HUVECs
Experiment: Lipid peroxidation (LPO) assay, MDA amount, in H2O2-exposed cells
Type: cell-based, Human
Conditions: cells exposed to H2O2

| Compound | reduction of the H2O2-induced increase in MDA amount (LPO) |
| --- | --- |
| O=C(O)[C@H]1O[C@@H](Oc2c(-c3ccc(O)c(O)c3)oc3cc(O)cc(O)c3c2=O)[C@H](O)[C@@H](O)[C@@H]1O [A1, quercetin-3-O-β-D-glucuronopyranoside] | not observed |
| C[C@@H]1O[C@@H](O[C@@H]2[C@@H](O)[C@H](OCCc3ccc(O)c(O)c3)O[C@H](CO)[C@H]2OC(=O)/C=C/c2ccc(O)c(O)c2)[C@H](O)[C@H](O)[C@H]1O [A6, Acteoside] | not observed |
| 1-O-caffeoyl-Quercetin-3-O-β-D-glucopyranoside [A2] | not observed |
